Source: PubChem BioAssay AID720504 (National Center for Advancing Translational Sciences (NCATS), 2013)
Hit rate of the full screen: of about 360,000 compounds, about 10,000 (2.8%) were called active. The inconclusive results got no clear call from the source; some entries with a clear call stand among them for comparison. The call rests on the fitted dose curve; in most records, active means well fitted inhibition curve with a large enough effect; inconclusive means small, poorly fitted or top-dose-only effect; inactive means flat fitted curve, though single readings scatter. Where the call is inconclusive, the potency comes from a doubtful curve fit.

Chains of the proteins cited; added tags and fusions are not shown.
UniProt P53350, whole entry, looked up: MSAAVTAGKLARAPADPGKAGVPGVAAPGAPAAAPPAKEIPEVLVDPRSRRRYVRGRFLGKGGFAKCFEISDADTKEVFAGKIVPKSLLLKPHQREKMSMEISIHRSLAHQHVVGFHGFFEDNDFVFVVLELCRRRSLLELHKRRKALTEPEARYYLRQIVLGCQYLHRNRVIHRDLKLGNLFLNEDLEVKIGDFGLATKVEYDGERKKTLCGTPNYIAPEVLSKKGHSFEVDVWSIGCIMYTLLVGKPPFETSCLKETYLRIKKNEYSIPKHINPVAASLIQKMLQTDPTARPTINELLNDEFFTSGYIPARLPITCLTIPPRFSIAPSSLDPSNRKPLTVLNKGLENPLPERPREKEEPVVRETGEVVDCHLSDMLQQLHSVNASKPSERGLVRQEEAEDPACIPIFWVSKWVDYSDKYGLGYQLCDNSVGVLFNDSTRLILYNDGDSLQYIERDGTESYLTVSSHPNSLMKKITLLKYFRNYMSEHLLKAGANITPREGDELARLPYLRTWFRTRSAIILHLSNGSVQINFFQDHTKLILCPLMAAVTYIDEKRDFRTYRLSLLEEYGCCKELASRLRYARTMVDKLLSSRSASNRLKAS

These compounds were tested against Serine/threonine-protein kinase PLK1 (Homo sapiens) (UniProt P53350) (assay: qHTS for Inhibitors of PLK1-PDB (polo-like kinase 1 - polo-box domain): Primary Screen). Settings: Plk1 PBD binding of FITC phosphopeptide, fluorescence polarization.
Further: nearly all actives have a fitted effect of over 65% in size.
On the % scale 0 is the no-effect control and ±100 the full control effect; potency means the concentration at half of the fitted maximal effect.
Wherever max response, negative = inhibition is given: series mostly up to about 57 µM.

SMILES	max response, negative = inhibition	Potency
CCOCCOC(=O)c1[nH]c2c(c1C)C(=O)CC(c1ccccc1)C2 (stereo unspecified)	inactive: -0.226%	
O=Cc1s/c(=N\S(=O)(=O)c2ccccc2)n(CCCCl)c1Cl		active: 4.74 µM
CC(=O)Nc1sc(N/N=C\c2cccc(Cl)c2)nc1-c1cccs1		inconclusive: 26.7 µM [inhibitor, partial curve]
Oc1ccc(Cc2ccccc2)c2cccnc12	inactive: -14.2%	
Cc1cccc(N(Cc2cc3ccc(C)cc3[nH]c2=O)C(=O)c2ccco2)c1		inconclusive: 15 µM [inhibitor, partial curve]
COc1cc2c(cc1CNC[C@H]1O[C@@H](n3cnc4c(N)ncnc43)[C@H](O)[C@@H]1O)OCO2		inconclusive: 26.7 µM [inhibitor, single point]
CCOc1ccc(-c2nnc(N3CCOCC3)c3ccccc23)cc1	inactive: 3.5%	
NC(CSS(=O)(=O)O)=NCCC12CC3CC(CC(O)(C3)C1)C2		active: 11.9 µM
COc1ccc(NC(=O)C(=O)NCCC2CCCCN2S(=O)(=O)c2ccc(F)cc2)cc1 (stereo unspecified)	inactive: -27.6%	
COc1cc(/C=N/NC(=O)c2ccc(N)cc2)ccc1OC(=O)c1cccc(C)c1		inconclusive: 33.6 µM [inhibitor, single point]
CCCNC(=O)c1ccc(CN2CCOCC2)cc1		inconclusive: 21.2 µM [inhibitor, partial curve]
Cc1ccc(/C=N/n2c(-c3cccs3)n[nH]c2=S)cc1		inconclusive: 26.7 µM [inhibitor, partial curve]
CCCCCCC(=O)N(O)C1CC(=O)N(c2ccc(Br)cc2)C1=O (stereo unspecified)		inconclusive: 26.7 µM [inhibitor, single point]
COc1ccccc1/C=C1/C(=O)N(c2ccc([N+](=O)[O-])cc2)N=C1C		active: 1.89 µM
Cc1nn(C)cc1N1C(=O)c2cccc3c(N)ccc(c23)C1=O		active: 2.38 µM
Cn1cnnc1Sc1ccc(C(=O)OCC(=O)Nc2ccccc2)cc1[N+](=O)[O-]		inconclusive: 29.9 µM [inhibitor, partial curve]
CC(C)Cc1cc(C(=O)Nc2sc3c(c2C#N)CCCC3)no1		inconclusive: 26.7 µM [inhibitor, partial curve]
O=C(O)c1ccc(N/N=C/c2ccc(-c3ccc(Br)cc3)o2)cc1		inconclusive: 23.8 µM [inhibitor, single point]
CCN(CC)c1ccc(C(=O)N2CCN(Cc3ccccc3)CC2)cc1		inconclusive: 26.7 µM [inhibitor, partial curve]
COCCNC(=S)N(c1ccccc1)C(C)C		inconclusive: 26.7 µM [inhibitor, partial curve]
COc1ccccc1NC(=O)CCNS(=O)(=O)c1ccc2[nH]c(=O)oc2c1		active: 29.9 µM
C[C@]12CC[C@H]3C(=CCc4cc(O)ccc43)[C@@H]1CCC2=O	inactive: -17.5%	
COc1ccc(/C=N/N(C)C2=NS(=O)(=O)c3ccccc32)cc1	inactive: 3.6%	
O=C(CSc1ccccc1F)NCC(c1cccs1)N1CCOCC1 (stereo unspecified)		inconclusive: 21.2 µM [inhibitor, partial curve]

SMILES	max response, negative = inhibition	Potency
Cc1nc2sc(C(c3ccco3)N3CCc4ccccc4C3)c(O)n2n1 (stereo unspecified)		inconclusive: 37.7 µM [inhibitor, single point]
N#CC(C#N)=C(Nc1ccc(F)cc1)SCc1cccc(F)c1	inconclusive: -33.4% [inhibitor]	
CCCc1nnc(NC(=O)Cn2c(=O)oc3ccccc32)s1		inconclusive: 23.8 µM [inhibitor, partial curve]
CC(C)C(c1nnnn1Cc1cccs1)N1CCN(C(=O)c2ccco2)CC1 (stereo unspecified)		active: 18.9 µM
Cc1ccc(S(=O)(=O)N2CCN(C(=O)CSc3nc4ccccc4o3)C2)cc1		inconclusive: 18.9 µM [inhibitor, partial curve]
COc1ccc(C2=NN(C(=O)c3cccs3)C(c3ccccc3O)C2)cc1 (stereo unspecified)	inactive: -11%	
N#C/C(=C/c1ccc(F)cc1)S(=O)(=O)c1ccccc1		inconclusive: 21.2 µM [inhibitor, partial curve]
CCCCNC(=S)Nc1cccc2cnccc12		inconclusive: 26.7 µM [inhibitor, single point]
CC1(C(=O)O)Oc2cccnc2NC1=O (stereo unspecified)		inconclusive: 23.8 µM [inhibitor, single point]
O=C(N/N=C/c1sc(N2CCOCC2)nc1-c1ccccc1)c1ccccc1Cl		inconclusive: 29.9 µM [inhibitor, partial curve]
Cc1cc(NS(=O)(=O)c2ccc(NC(=O)NC(C)(C(F)(F)F)C(F)(F)F)cc2)no1	inactive: -8.53%	
O=S(=O)(c1cccc(Cl)c1Cl)N1CCN(C(=S)NCCCN2CCOCC2)CC1		inconclusive: 26.7 µM [inhibitor, single point]
CCCCCCSc1nc(O)c(C2OC(=O)c3c2ccc(OC)c3OC)c(=O)n1-c1ccccc1 (stereo unspecified)		inconclusive: 29.9 µM [inhibitor, partial curve]
CN(C)/C=N/C(=S)Nc1ccc(Cl)cc1Cl		inconclusive: 21.2 µM [inhibitor, partial curve]
Cc1ccc2cc3cc(C(=O)NCCCN4CCCC4)oc3nc2c1		inconclusive: 8.44 µM [inhibitor, full curve]
COc1ccc(-c2[nH]ncc2N=Nc2cc(C)cc(C)c2)cc1	inactive: -16.8%	
Cc1ccccc1NC(=O)Cc1nc(COC(=O)CSc2ccc(F)cc2)cs1	inactive: -1.04%	
Oc1c(C=Nc2ccccc2Cl)[nH]c2ccccc12	inactive: 0%	
COc1cc(OC)cc(C(=O)NNC(=O)c2cc3ccccc3cc2O)c1		inconclusive: 21.2 µM [inhibitor, partial curve]
COc1ccc(NC(=S)NCc2cccn2C)cc1	inconclusive: -34.9% [inhibitor]	
CCCc1cc(C(=O)Nc2sc(C(C)=O)c(C)c2C(=O)OCC)no1		inconclusive: 23.8 µM [inhibitor, partial curve]
Cc1ccc(S(=O)(=O)Nc2nc(-c3ccccc3)cs2)cc1		inconclusive: 21.2 µM [inhibitor, partial curve]
COc1ccc(NC(=S)Nc2ccc3nccnc3c2)cc1	inactive: -25%	
O=C(Nc1ccc2c(c1)ncn2-c1ccccc1)c1ccco1		inconclusive: 11.9 µM [inhibitor, partial curve]

SMILES	max response, negative = inhibition	Potency
CCOC(=O)C(C)/C(C)=N/NC(N)=S (stereo unspecified)		inconclusive: 26.7 µM [inhibitor, single point]
CN(C1CCCCC1)S(=O)(=O)c1ccc(=S)[nH]c1		active: 21.2 µM
COc1ccccc1C(=O)NC(=O)Nc1nc(-c2ccccc2)cc(C(F)(F)F)n1		inconclusive: 29.9 µM [inhibitor, partial curve, poor fit]
NS(=O)(=O)c1ccc(NC(=S)N2CCN(C(=O)C3CCCO3)CC2)cc1 (stereo unspecified)		active: 10.6 µM
O=C(NN=C1CCCC1)C1COc2ccccc2O1 (stereo unspecified)	inactive: -1.23%	
Cc1snc(SCc2ccc(F)cc2)c1C#N		inconclusive: 16.8 µM [inhibitor, partial curve]
Cn1ccc(NC(=O)Nc2cccc([N+](=O)[O-])c2)n1		inconclusive: 29.9 µM [inhibitor, single point]
O=c1[nH]c2c(s1)C(c1ccco1)C1C3CCC(C3)C1S2 (stereo unspecified)		inconclusive: 26.7 µM [inhibitor, partial curve]
O/N=C1\CCCC\C1=C/c1ccccc1	inconclusive: -33.3% [inhibitor]	
O=C(NCc1ccc2c(c1)OCO2)Nc1ccc(F)cc1	inactive: -1.46%	
Cc1cc[n+](-c2[nH]c(=O)sc2/C=N/NC([S-])=Nc2ccccc2)cc1		inconclusive: 23.8 µM [inhibitor, partial curve]
Cn1nnc(NC(=O)c2ccc([N+](=O)[O-])cc2Cl)n1		inconclusive: 23.8 µM [inhibitor, partial curve]
CCN(CC)c1ccc(S(=O)(=O)N2CCOCC2)cc1NC(=O)CSc1cccc[n+]1[O-]		inconclusive: 26.7 µM [inhibitor, single point]
COc1ccc(/C=C(\C#N)c2nc3ccccc3[nH]2)cc1O		inconclusive: 21.2 µM [inhibitor, single point]
O=C(CSc1nc2ccccc2o1)N/N=C/c1ccccc1C(=O)O		active: 26.7 µM
O=C(CSc1nc2nc(-c3cccs3)cc(C(F)(F)F)c2c(=O)[nH]1)Nc1ccc(F)c(F)c1		active: 7.52 µM
CCCCOc1ccc(N(CC(=O)NC(C)C)C(=O)CCC(=O)Nc2ccccn2)cc1	inconclusive: -37% [inhibitor]	
COc1cc(NC(=S)NCCc2c[nH]c3ccccc23)c(OC)cc1Cl	inactive: 1.45%	
CCCCn1c(N)c(N(CC(C)C)C(=O)CSCc2c(C)noc2C)c(=O)[nH]c1=O	inactive: -8.43%	
CCCCOC(=O)n1c(=S)oc2cc(Cl)ccc21		inconclusive: 26.7 µM [inhibitor, partial curve]
N=C1/C(=C\c2ccc(OC(=O)c3ccc(F)cc3)cc2)C(=O)N=C2SC(N3CCCC3)=NN12		inconclusive: 18.9 µM [inhibitor, partial curve]
CCCOc1ccc(/C=C/C(=O)Nc2ccc([N+](=O)[O-])cc2C)cc1		inconclusive: 33.6 µM [inhibitor, partial curve]
C[C@@H]1CN([C@@H](C)CO)C(=O)CCCn2nncc2CO[C@H]1CN(C)C(=O)Nc1ccc(C(F)(F)F)cc1		inconclusive: 23.8 µM [inhibitor, partial curve]

Structures above that contain a COOH group (three):
SMILES	max response, negative = inhibition	Potency
O=C(O)c1ccc(N/N=C/c2ccc(-c3ccc(Br)cc3)o2)cc1		inconclusive: 23.8 µM [inhibitor, single point]
CC1(C(=O)O)Oc2cccnc2NC1=O (stereo unspecified)		inconclusive: 23.8 µM [inhibitor, single point]
O=C(CSc1nc2ccccc2o1)N/N=C/c1ccccc1C(=O)O		active: 26.7 µM
